Test results published in PubChem BioAssay AID1045 (SRMLSC, 2008).
Hit rate of the full screen: of about 1,500 compounds, about 1,400 (93%) were called active. How the calls were made is not given here. The set was probably picked from earlier hits. Only a part is listed here, and it is no random draw. Entries with a potency or affinity are not part of this list.

Assay: growth suppression of beta-catenin-knockout colon cells, dose response, cell-based, HCT116, human colon tumor (AID 1045)
Conditions: CellTiter-Glo, 60 h; at 30 µM (top of the series)
For CC(C)N1C(=O)/C(=C/C=C/c2ccco2)C(=O)N(Cc2ccco2)C1=O, the viability was inactive: 88.8%. With COc1ccc(CCNC(=O)c2c(N)n(CCN3CCOCC3)c3nc4ccccc4nc23)cc1OC the viability was inactive: 88%.
